Amino acid sequences for entries named in this document (tags omitted). A change or cut given only in a name is not applied to a line headed by its entry.
UniProt Q02790: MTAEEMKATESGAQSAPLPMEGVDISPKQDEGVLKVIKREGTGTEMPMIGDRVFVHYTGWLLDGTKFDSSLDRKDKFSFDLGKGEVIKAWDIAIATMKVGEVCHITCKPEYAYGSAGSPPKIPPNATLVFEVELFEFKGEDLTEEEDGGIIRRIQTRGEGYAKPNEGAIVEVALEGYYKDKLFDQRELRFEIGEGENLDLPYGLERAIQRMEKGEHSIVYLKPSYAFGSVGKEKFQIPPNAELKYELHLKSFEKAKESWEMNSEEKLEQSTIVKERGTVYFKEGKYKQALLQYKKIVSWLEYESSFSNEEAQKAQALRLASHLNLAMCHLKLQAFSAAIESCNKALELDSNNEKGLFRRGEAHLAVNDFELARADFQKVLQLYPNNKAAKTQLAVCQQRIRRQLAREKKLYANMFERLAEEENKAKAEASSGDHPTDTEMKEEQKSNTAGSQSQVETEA
UniProt Q9NRD1: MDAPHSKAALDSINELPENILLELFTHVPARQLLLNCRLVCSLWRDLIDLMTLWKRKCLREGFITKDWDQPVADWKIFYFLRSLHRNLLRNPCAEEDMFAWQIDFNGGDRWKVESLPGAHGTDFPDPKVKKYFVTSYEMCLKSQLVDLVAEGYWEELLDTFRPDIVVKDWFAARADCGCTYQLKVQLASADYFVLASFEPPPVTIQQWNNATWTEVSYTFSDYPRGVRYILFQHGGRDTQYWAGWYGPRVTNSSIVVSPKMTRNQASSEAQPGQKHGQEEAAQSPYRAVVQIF
UniProt Q8IYT2: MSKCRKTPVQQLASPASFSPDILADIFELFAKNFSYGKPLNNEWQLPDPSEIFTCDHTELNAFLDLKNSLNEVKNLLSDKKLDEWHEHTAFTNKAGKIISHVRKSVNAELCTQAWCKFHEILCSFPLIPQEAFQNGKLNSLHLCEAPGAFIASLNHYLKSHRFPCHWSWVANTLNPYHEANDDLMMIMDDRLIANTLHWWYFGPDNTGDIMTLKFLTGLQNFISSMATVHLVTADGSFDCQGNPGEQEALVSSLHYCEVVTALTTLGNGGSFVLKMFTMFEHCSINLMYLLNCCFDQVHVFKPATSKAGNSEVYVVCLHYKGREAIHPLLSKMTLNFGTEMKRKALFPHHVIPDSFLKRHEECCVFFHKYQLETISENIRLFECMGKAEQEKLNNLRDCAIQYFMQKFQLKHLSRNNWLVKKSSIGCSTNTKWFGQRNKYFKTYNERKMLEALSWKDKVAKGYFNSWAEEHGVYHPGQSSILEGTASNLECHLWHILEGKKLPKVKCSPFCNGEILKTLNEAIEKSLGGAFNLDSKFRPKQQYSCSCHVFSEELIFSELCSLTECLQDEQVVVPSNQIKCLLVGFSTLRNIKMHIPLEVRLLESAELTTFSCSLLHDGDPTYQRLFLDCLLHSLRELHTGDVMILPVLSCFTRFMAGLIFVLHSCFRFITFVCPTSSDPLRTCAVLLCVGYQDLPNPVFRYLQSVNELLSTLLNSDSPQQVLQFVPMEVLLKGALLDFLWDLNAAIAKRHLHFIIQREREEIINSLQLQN
UniProt P32456: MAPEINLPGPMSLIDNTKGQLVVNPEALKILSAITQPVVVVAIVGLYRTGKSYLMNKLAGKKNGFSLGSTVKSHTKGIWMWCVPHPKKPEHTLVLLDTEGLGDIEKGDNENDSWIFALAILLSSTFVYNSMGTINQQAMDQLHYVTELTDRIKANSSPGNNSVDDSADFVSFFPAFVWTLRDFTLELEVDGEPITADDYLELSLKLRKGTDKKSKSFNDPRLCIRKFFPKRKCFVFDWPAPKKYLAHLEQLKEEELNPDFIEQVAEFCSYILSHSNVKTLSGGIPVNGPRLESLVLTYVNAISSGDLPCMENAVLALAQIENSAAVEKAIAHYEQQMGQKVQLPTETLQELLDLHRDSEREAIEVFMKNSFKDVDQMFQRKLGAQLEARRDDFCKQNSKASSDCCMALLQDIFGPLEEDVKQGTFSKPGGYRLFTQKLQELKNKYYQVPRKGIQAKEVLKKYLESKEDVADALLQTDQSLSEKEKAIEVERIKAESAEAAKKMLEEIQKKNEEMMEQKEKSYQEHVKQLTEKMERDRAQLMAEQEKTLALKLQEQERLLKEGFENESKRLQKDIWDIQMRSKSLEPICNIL
UniProt P35637: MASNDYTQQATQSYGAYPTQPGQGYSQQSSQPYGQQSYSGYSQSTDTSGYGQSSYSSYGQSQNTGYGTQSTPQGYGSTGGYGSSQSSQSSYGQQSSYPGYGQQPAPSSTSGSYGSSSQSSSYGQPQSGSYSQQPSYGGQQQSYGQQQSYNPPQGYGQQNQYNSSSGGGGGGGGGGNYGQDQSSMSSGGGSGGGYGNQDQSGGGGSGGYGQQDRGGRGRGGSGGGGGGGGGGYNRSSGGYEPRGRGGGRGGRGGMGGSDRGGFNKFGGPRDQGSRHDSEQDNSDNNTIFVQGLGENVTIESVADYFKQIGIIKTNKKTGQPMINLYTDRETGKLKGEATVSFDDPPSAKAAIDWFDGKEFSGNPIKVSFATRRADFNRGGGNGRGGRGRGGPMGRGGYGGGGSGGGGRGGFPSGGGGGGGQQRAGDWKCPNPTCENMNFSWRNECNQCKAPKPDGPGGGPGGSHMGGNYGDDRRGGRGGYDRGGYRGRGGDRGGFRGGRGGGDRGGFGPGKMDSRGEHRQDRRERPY
UniProt Q96AE4: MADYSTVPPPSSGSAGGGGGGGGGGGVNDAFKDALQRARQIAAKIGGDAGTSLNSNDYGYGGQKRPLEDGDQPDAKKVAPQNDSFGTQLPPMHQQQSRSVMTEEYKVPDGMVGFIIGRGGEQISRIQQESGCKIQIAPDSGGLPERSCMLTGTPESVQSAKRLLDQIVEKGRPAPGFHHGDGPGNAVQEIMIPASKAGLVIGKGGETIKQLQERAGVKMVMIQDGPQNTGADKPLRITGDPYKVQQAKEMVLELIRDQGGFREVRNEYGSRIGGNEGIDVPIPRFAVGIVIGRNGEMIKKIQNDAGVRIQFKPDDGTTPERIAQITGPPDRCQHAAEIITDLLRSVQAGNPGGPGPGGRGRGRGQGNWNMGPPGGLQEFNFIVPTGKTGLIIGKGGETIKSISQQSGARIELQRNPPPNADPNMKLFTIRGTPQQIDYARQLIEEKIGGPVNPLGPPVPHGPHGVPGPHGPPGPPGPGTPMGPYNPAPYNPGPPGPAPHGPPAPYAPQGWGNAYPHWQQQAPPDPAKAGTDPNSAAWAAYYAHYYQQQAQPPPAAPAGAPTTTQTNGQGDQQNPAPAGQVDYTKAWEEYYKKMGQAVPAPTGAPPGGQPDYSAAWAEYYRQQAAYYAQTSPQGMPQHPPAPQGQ
UniProt Q05932: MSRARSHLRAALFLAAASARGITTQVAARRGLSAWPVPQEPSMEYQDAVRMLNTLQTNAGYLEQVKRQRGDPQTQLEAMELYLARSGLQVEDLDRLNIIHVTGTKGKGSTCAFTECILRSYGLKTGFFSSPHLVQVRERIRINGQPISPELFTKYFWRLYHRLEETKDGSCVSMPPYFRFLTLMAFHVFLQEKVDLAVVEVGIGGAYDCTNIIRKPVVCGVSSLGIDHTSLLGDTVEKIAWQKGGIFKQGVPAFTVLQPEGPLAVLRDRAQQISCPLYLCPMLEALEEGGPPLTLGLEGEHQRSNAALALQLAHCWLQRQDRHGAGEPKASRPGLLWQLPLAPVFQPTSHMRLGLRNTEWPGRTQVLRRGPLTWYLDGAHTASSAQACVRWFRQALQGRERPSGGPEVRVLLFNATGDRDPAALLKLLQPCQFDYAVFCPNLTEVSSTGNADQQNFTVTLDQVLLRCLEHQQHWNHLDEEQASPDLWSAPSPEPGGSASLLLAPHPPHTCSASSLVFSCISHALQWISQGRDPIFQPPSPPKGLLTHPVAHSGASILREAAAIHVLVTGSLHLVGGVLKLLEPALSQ
UniProt O75494: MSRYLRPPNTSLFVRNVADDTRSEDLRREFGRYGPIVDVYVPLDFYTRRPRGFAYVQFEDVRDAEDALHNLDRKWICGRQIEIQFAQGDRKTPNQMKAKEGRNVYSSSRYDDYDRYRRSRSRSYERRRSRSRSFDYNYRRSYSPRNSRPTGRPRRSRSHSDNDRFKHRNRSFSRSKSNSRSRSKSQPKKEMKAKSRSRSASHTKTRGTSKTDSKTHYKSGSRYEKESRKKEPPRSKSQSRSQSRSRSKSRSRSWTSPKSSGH
UniProt Q01844: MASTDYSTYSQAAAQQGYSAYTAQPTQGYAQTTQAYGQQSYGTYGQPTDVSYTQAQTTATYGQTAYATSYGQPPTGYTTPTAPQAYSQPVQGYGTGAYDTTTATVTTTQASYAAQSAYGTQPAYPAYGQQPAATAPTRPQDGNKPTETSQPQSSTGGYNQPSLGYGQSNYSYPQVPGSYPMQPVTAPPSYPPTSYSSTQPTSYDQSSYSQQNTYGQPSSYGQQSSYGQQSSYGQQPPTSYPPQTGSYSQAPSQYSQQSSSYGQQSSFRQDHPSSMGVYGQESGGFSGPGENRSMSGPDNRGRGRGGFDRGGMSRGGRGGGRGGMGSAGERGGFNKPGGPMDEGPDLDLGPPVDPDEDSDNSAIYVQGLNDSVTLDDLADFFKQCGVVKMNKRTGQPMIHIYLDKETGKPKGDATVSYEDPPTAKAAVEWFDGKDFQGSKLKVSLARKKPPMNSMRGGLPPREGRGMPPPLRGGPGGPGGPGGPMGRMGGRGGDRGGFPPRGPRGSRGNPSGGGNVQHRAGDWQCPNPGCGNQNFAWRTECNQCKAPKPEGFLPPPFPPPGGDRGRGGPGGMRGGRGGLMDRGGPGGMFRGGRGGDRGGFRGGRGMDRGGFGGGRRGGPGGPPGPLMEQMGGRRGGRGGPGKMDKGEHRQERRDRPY
UniProt Q8IYI6: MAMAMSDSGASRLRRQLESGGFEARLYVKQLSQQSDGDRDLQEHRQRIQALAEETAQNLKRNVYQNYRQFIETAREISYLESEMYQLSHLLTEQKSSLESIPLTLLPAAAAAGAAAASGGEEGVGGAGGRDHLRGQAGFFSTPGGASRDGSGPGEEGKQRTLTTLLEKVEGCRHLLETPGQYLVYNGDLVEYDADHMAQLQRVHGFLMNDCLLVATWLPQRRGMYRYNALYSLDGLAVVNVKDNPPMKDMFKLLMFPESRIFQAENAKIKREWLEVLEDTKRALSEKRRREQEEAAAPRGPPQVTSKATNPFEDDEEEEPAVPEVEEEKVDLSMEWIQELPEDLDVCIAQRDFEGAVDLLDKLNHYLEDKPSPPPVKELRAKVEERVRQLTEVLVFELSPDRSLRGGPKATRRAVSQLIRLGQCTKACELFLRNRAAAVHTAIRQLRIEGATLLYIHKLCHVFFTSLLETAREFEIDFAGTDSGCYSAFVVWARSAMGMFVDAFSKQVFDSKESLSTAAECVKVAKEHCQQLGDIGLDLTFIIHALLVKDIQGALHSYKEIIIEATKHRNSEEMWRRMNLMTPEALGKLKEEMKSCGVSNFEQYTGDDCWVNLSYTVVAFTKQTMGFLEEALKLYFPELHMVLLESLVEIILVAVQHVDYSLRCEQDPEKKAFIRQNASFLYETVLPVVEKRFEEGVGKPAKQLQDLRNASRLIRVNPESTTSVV
UniProt Q96GK7: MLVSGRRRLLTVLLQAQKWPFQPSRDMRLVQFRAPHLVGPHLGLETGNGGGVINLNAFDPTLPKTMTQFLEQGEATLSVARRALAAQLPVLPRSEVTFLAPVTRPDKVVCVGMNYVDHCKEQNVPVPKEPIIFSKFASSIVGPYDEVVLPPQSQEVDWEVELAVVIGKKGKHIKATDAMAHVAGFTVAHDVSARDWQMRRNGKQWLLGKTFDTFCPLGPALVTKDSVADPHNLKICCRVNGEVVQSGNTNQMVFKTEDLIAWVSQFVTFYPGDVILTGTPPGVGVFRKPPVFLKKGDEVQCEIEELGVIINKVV
UniProt Q96SL8: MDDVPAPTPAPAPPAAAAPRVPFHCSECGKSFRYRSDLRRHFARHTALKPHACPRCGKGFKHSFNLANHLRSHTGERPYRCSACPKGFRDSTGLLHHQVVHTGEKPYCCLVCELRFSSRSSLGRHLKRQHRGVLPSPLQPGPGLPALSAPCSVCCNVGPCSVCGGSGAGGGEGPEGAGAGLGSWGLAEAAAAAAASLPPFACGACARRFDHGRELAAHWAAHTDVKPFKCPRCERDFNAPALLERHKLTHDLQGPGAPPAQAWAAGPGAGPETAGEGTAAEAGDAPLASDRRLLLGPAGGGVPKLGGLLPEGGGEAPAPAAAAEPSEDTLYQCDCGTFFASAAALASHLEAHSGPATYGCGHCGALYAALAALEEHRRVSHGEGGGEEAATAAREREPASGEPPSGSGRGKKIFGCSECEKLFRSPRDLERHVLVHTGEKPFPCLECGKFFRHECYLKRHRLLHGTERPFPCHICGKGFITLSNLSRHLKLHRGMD

This is one part of the list.
Each target was assayed with COc1ccc(Cn2ccc3ccc(C(=O)NO)cc32)cc1 (assay: dose-dependent thermal stabilisation call (2D-TPP, DLPTP, 10% FDR) (binary (1 = stabilised)); higher = stabilised by the compound). Settings: system: HL-60 intact cells; concentration range 0.04-10 µM.
In the case of FKBP4 (UniProt Q02790), the “dose-dependent thermal stabilisation call” value is reported as inactive: 0. With FGD3 (UniProt Q5JSP0) the “dose-dependent thermal stabilisation call” value was inactive: 0. With FBXO6 (UniProt Q9NRD1) the “dose-dependent thermal stabilisation call” value was inactive: 0. For FTSJD1 (UniProt Q8IYT2), the “dose-dependent thermal stabilisation call” value was inactive: 0. GBE1 (UniProt Q04446) was tested, and the “dose-dependent thermal stabilisation call” value was inactive: 0. FRG1 (UniProt Q14331) was tested, and the “dose-dependent thermal stabilisation call” value was inactive: 0. G3P1_HUMAN was tested, and the “dose-dependent thermal stabilisation call” value was inactive: 0. For EXOC4 (UniProt Q96A65), the “dose-dependent thermal stabilisation call” value was inactive: 0. For GBP2 (UniProt P32456), the “dose-dependent thermal stabilisation call” value was inactive: 0. With FBXO9 (UniProt Q9UK97) the “dose-dependent thermal stabilisation call” value was inactive: 0. With FUS (UniProt P35637) the “dose-dependent thermal stabilisation call” value was inactive: 0. For FGFR1OP (UniProt O95684), the “dose-dependent thermal stabilisation call” value was inactive: 0. For FUT11 (UniProt Q495W5), the “dose-dependent thermal stabilisation call” value was inactive: 0. For GBA2 (UniProt Q9HCG7), the “dose-dependent thermal stabilisation call” value was inactive: 0. With FASTKD5 (UniProt Q7L8L6) the “dose-dependent thermal stabilisation call” value was inactive: 0. FBXL12 (UniProt Q9NXK8) was tested, and the “dose-dependent thermal stabilisation call” value was inactive: 0. In the case of FLAD1 (UniProt Q8NFF5), the “dose-dependent thermal stabilisation call” value is reported as inactive: 0. In the case of FUBP1 (UniProt Q96AE4), the “dose-dependent thermal stabilisation call” value is reported as inactive: 0. With FLJ40125 the “dose-dependent thermal stabilisation call” value was inactive: 0. FPGS (UniProt Q05932) was tested, and the “dose-dependent thermal stabilisation call” value was inactive: 0. FTO (UniProt Q9C0B1) was tested, and the “dose-dependent thermal stabilisation call” value was inactive: 0. With FUSIP1 (UniProt O75494) the “dose-dependent thermal stabilisation call” value was inactive: 0. EWSR1 (UniProt Q01844) was tested, and the “dose-dependent thermal stabilisation call” value was inactive: 0. In the case of EXOC8 (UniProt Q8IYI6), the “dose-dependent thermal stabilisation call” value is reported as inactive: 0. With FAHD2A (UniProt Q96GK7) the “dose-dependent thermal stabilisation call” value was inactive: 0. With FAM21B (UniProt Q641Q2) the “dose-dependent thermal stabilisation call” value was inactive: 0. With FIZ1 (UniProt Q96SL8) the “dose-dependent thermal stabilisation call” value was inactive: 0. With FARS2 (UniProt O95363) the “dose-dependent thermal stabilisation call” value was inactive: 0.
